The list shows only some results of the screen, not a fair sample: it is rich in T/C values a quarter to a half above the control, in often repeated tests (any T/C) and in doses without a T/C. Further doses and runs are listed elsewhere. T/C: endpoint of the treated group in % of that of the vehicle group. Some doses have a count of surviving animals in place of a T/C: the source holds a T/C of zero for them, seemingly a mark for toxic or unscored doses. Some doses without a T/C left all or most animals alive at the check, yet need not have been tolerated: the source hardly ever lists a survival T/C far under the control, and the zero likely stands for such cases as well. Survivors were counted at the toxicity check, usually on the fifth day, unless a day is given; later deaths do not show. Schedule codes are those of the source, taken here to give the interval after Q, in days (D) or hours (H), and the number of doses after X. Some schedule codes hold Z or #, which are not explained here. Where survival is the endpoint, the PubChem record calls one and a half times the control and up active, and a quarter to a half above the control has no call in these data; cut-offs in other NCI protocols can differ.
System: L1210 leukemia ip in BDF1 mice, survival T/C
Experiment: NCI In Vivo Anticancer Drug Screen. Data for tumor model L1210 Leukemia (intraperitoneal) in B6D2F1 (BDF1) mice
Details: T/C endpoint: mean survival time, higher T/C = longer survival
[1] = dose: 400.0 mg/kg/injection, schedule: Q01DX001 (ip), vehicle: saline

C/C=C(/Cl)C(=O)O
survivor count (dose: 100.0 mg/kg/injection, schedule: Q01DX001 (ip), vehicle: saline): 2 of 4
survivor count (dose: 200.0 mg/kg/injection, schedule: Q01DX001 (ip), vehicle: saline): 1 of 4
survivor count [1]: 0 of 4

CN(CCCl)C1c2ccccc2-c2ccccc21
survivor count (dose: 200.0 mg/kg/injection, schedule: Q04DX002 (ip), vehicle: saline): 0 of 3
survivor count (dose: 400.0 mg/kg/injection, schedule: Q04DX002 (ip), vehicle: saline): 0 of 3

Cc1cc(C(N)=O)c(C(N)=O)c(=O)[nH]1
survivor count (dose: 300.0 mg/kg/injection, schedule: Q01DX001 (ip), vehicle: water): 3 of 6

NC1=CC(=O)c2ccccc2C1=O
survivor count (dose: 31.2 mg/kg/injection, schedule: Q01DX Z (ip), vehicle: other): 3 of 6
survivor count (dose: 125.0 mg/kg/injection, schedule: Q01DX Z (ip), vehicle: other): 2 of 6
survivor count (dose: 400.0 mg/kg/injection, schedule: Q04DX003 (ip), vehicle: saline with Tween-80): 0 of 6

O=C1CCN(Cc2ccccc2)C(=S)N1
survivor count (dose: 200.0 mg/kg/injection, schedule: Q01DX Z (ip), vehicle: methylcellulose (MC)): 3 of 6

O=C(Nc1ccc(NC(=O)c2ccc(C3=NCCCN3)cc2)cc1)c1ccc(C2=NCCCN2)cc1
T/C (dose: 30.0 mg/kg/injection, schedule: Q01DX Z (ip), vehicle: carboxymethylcellulose (CMC)): 141 % of control
survivor count (dose: 60.0 mg/kg/injection, schedule: Q01DX Z (ip), vehicle: carboxymethylcellulose (CMC)): 0 of 6
survivor count (dose: 120.0 mg/kg/injection, schedule: Q01DX Z (ip), vehicle: carboxymethylcellulose (CMC)): 0 of 6

Cc1ccc(/C=C2\CCC3C(=O)CCCC3C2=O)cc1 (stereo not drawn)
survivor count [1]: 6 of 6

Clc1ccc(Cl)c(OCC2=NCCN2)c1
survivor count (dose: 80.0 mg/kg/injection, schedule: Q04DX003 (ip), vehicle: Klucel (hydroxypropylcellulose) (HPC)): 0 of 6
survivor count (dose: 100.0 mg/kg/injection, schedule: Q01DX009 (ip), vehicle: Klucel (hydroxypropylcellulose) (HPC)): 0 of 6
survivor count (dose: 200.0 mg/kg/injection, schedule: Q01DX009 (ip), vehicle: Klucel (hydroxypropylcellulose) (HPC)): 0 of 6
survivor count (dose: 400.0 mg/kg/injection, schedule: Q01DX009 (ip), vehicle: Klucel (hydroxypropylcellulose) (HPC)): 0 of 6
